# Measurements from the supplement of paper PMC10735217.
# Some of the results follow. Repeats in this data set agree poorly, so a single value says little.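 The human kidney-derived cells carry a stably integrated construct of eight TEAD-binding elements driving luciferase, read by luminescence in a drug-repurposing library screen. A compound counts as a hit when its signal is more than five robust Z scores above the plate mean.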
# Tested on: HEK293A TEAD-LUC reporter
# Test: TEAD-luciferase reporter activity (YAP activation), robust Z score vs plate; higher = stronger YAP/TEAD activation
# Conditions: 24 h
SMILES,TEAD-luciferase reporter activity (compound concentration: 200 nM),TEAD-luciferase reporter activity (compound concentration: 10 uM),TEAD-luciferase reporter activity (compound concentration: 2 uM)
COc1cccc([C@H]2O[C@H](CC(=O)N3CCC(CC(=O)O)CC3)C(=O)N(CC(C)(C)CO)c3ccc(Cl)cc32)c1OC,inactive: 3.07,inactive: 0.0148,–
CCCN1CCN(c2ccc(C(=O)NC3(C(=O)NCC#N)CCCCC3)cc2)CC1 [Balicatib],–,–,inactive: -1.08
CCCN1CCN(c2ccc(C(=O)NC3(C(=O)NCC#N)CCCCC3)cc2)CC1,inactive: -1.5,inactive: -0.935,–
Cc1cc(C=O)c(C)n1-c1ccc(OCC(=O)O)cc1,inactive: 2.51,inactive: 2.58,inactive: 0.644
Cc1ccc(C(=O)N2CCC(N3CCCC3=O)CC2)cc1,inactive: -0.607,inactive: 1.14,–
CC[C@@H]1C[C@H](N(Cc2cc(C(F)(F)F)cc(C(F)(F)F)c2)C(C)=O)c2cc(C(F)(F)F)ccc2N1C(=O)OC(C)C,inactive: -0.965,inactive: 3.5,inactive: -1.3
O=c1[nH]nc2n1-c1ccccc1SC2,inactive: -0.562,inactive: -1.03,inactive: -0.965
O[C@](Cn1cncn1)(Cn1cnc(/C=C/c2ccc(OCC(F)(F)C(F)F)cc2)n1)c1ccc(F)cc1F,inactive: 0.771,inactive: 0.643,–
CC(C)n1nc(C(=O)NCCN2CCC(NC(=O)C34CC5CC(CC(C5)C3)C4)CC2)c2ccccc21,inactive: -0.993,inactive: 1.19,inactive: 0.00923
COc1ccc(Cc2sccc2O[C@@H]2O[C@H](CO)[C@@H](O)[C@H](O)[C@H]2O)cc1 [Atigliflozin],inactive: -0.497,inactive: 2.23,inactive: -0.51
O=S(=O)(c1nc(-c2ccccc2)c(-c2ccc(Cl)c(Cl)c2)[nH]1)C(F)(F)C(F)F,inactive: -0.87,inactive: -0.06,inactive: -0.352
CCOC(=O)Cc1cc(Cl)c(Oc2ccc(C(=O)NC(C)(C)C)cc2NS(=O)(=O)c2ccc(C3CC3)cc2Cl)cc1F,inactive: -0.611,inactive: 2.57,inactive: -0.733
CCN(CC)CCO[C@H]1CC[C@@]2(C)C(=CC[C@@H]3[C@@H]2CC[C@]2(C)OCC[C@@H]32)C1,inactive: -1.04,inactive: -1.41,inactive: -0.704
CC[C@@]1(CO)CCCN2CCc3c([nH]c4ccccc34)[C@@H]21 [Vintoperol],inactive: -0.533,inactive: -0.163,inactive: 2.17
Cc1cc2ncc(C(=O)NC3CC3)cn2n1,inactive: -0.748,inactive: 1,–
CC(C)(S)[C@@H](N)C(=O)O [D-penicillamine],–,–,inactive: -0.571
COc1ccccc1Oc1c(NS(=O)(=O)/C=C/c2ccccc2)nc(-c2ncccn2)nc1OC [Nebentan potassium],inactive: 0.687,inactive: -1.09,inactive: 0.0955
Cc1ccc2c(c1)c1c(n2CCc2ccc(C)nc2)CCN(C)C1 [Dimebon],–,–,inactive: -0.692
Cc1ccc2c(c1)c1c(n2CCc2ccc(C)nc2)CCN(C)C1,inactive: -0.562,active: 5.11,–

# A different layout for part of the listing above:
SMILES	TEAD-luciferase reporter activity (compound concentration: 200 nM)	TEAD-luciferase reporter activity (compound concentration: 10 uM)	TEAD-luciferase reporter activity (compound concentration: 2 uM)
CC[C@@H]1C[C@H](N(Cc2cc(C(F)(F)F)cc(C(F)(F)F)c2)C(C)=O)c2cc(C(F)(F)F)ccc2N1C(=O)OC(C)C	inactive: -0.965	inactive: 3.5	inactive: -1.3
CC(C)n1nc(C(=O)NCCN2CCC(NC(=O)C34CC5CC(CC(C5)C3)C4)CC2)c2ccccc21	inactive: -0.993	inactive: 1.19	inactive: 0.00923
